Drawing on the supplement of paper PMC7024190, this text covers log for 46 molecules.

Structures are written as SMILES. Counter-ions that a name gives are not always drawn. Some of the results follow. Single values are uncertain here, since repeats match poorly.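 A first-round screen of about ten thousand compounds sought those raising reporter output, using human embryonic kidney cells briefly transfected with a plasmid carrying a Renilla luciferase gene driven by the HSV-TK promoter.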

The test system of this test is HEK 293FT. Briefly: log relative Renilla luciferase luminescence (reporter expression vs reference, reference not stated) (log (base not stated)); higher = higher recombinant reporter expression. The conditions noted are these: 10 µM; time after transfection 48 h.
For the molecule `C#C[C@]1(OC(C)=O)CC[C@H]2[C@@H]3CCC4=CC(=NO)CC[C@@H]4[C@H]3CC[C@@]21CC` (mixture of isomers) [norgestimate], the log is 0.0336.
The result for `O=C1c2ccccc2C(=O)C1c1ccc(Cl)cc1` [chlorindione] reads 0.0913; that for `COc1ccc2cc([C@H](C)CO)ccc2c1` [naproxol], 0.168; that for `CC(=O)O[C@]1(C(C)=O)CC[C@H]2[C@@H]3C=C(Cl)C4=CC(=O)[C@@H]5C[C@@H]5[C@]4(C)[C@H]3CC[C@@]21C` [cyproterone acetate], -0.0934.
`Clc1ccc(CO/N=C(\Cn2ccnc2)c2ccc(Cl)cc2Cl)c(Cl)c1` [oxiconazole nitrate]: the log was found to be 0.0176.
For `CCCCC(CC)CCC(CC(C)C)OS(=O)(=O)O` (stereo unspecified) [sodium tetradecyl sulfate], the log was 0.0888.
Regarding `O=C(O)COCCN1CCN(C(c2ccccc2)c2ccc(Cl)cc2)CC1` (stereo unspecified) [cetirizine hydrochloride], the log was 0.203.
For `N[C@@H]1CONC1=O` [cycloserine (d)], the log is -0.118.
For `CCCCCCCCCCCCCCCC(=O)OC[C@@H](NC(=O)C(Cl)Cl)[C@H](O)c1ccc([N+](=O)[O-])cc1` [chloramphenicol palmitate] the value was -0.262; for `COc1cc2nc(N(C)CCCNC(=O)C3CCCO3)nc(N)c2cc1OC` (stereo unspecified) [alfuzosin hydrochloride], 0.147.
Regarding `Clc1ccc(Cn2c(CN3CCCC3)nc3ccccc32)cc1` [clemizole hydrochloride], the log came out at 0.0025.
For `O=C(O)/C=C/c1ccc(O)c(O)c1` [caffeic acid] the value was 0.0557.
On to `CC(=O)Oc1ccccc1C(=O)O` [aspirin], for which the log is 0.0629.
For `O=c1cc(-c2ccccc2)oc2cc(O)ccc12` [7-hydroxyflavone] the value was 0.144; for `CC1=C(/C=C/C(C)=C/C=C/C(C)=C/C=C/C=C(C)/C=C/C=C(C)/C=C/C2=C(C)C(=O)[C@@H](O)CC2(C)C)C(C)(C)C[C@H](O)C1=O` [astaxanthin], 0.274.
In the case of `N=C(N)NS(=O)(=O)c1ccc(N)cc1` [sulfaguanidine], the log came out at 0.0391.
For `NC[C@@H]1CC[C@@H](N)[C@@H](O[C@H]2[C@H](O)[C@@H](O[C@H]3O[C@H](CO)[C@@H](O)[C@H](N)[C@H]3O)[C@H](N)C[C@@H]2N)O1` [dibekacin] the value was 0.0113; for `CC1=C(/C=C/C(C)=C/C=C/C(C)=C/C(=O)O)C(C)(C)CCC1` [tretinoin], -0.0233.
The result for `CCc1c(C)[nH]c2c1C(=O)C(CN1CCOCC1)CC2` (stereo unspecified) [molindone hydrochloride] reads -0.198; that for `COc1cc(C(=O)NCCCCCC(=O)O)cc(OC)c1OC` [capobenic acid], 0.129; that for `CC1=C(C(=O)O)N2C(=O)[C@@H](NC(=O)[C@H](N)C3=CCC=CC3)[C@H]2SC1` [cephradine], -0.083.
For `N[C@@H](CCC(=O)N[C@@H](CS)C(=O)NCC(=O)O)C(=O)O` [glutathione] the value was -0.0407; for `CC1(C)[C@H](C(=O)O)N2C(=O)C[C@H]2S1(=O)=O` [sulbactam], -0.0849.
Take `COc1cc2c3cc1Oc1cc(ccc1O)C[C@@H]1c4c(cc(OC)c(O)c4Oc4ccc(cc4)C[C@@H]3N(C)CC2)CC[N+]1(C)C` [tubocurarine chloride]: the log is -1.24.
As to `Cc1ncc(CO)c(CO)c1O` [pyridoxine], the log came to 0.115.
Take `C[C@]12CC[C@@H]3c4ccc(O)cc4CC[C@H]3[C@@H]1CC[C@@H]2O` [estradiol]: the log was -0.175.
With `CCCN(CCC)S(=O)(=O)c1ccc(C(=O)O)cc1` [probenecid], the log is -0.118.
For `CCN(CC)C(=O)c1cccc(C)c1` [diethyltoluamide] the value was -0.102.
The result for `CCN(CC)C(=O)c1cccnc1` [nikethamide] reads 0.0147; that for `COc1ccc(-c2coc3c(O)c(OC)ccc3c2=O)cc1` [retusin 7-methyl ether], 0.127; that for `COc1ccc2[nH]c([S+]([O-])Cc3ncc(C)c(OC)c3C)nc2n1` (stereo unspecified) [tenatoprazole], -0.0246.
The result for `O=C(O)CCCCC(=O)O` [adipic acid] reads -0.00497; that for `CN(C)CCOC(c1ccccc1)c1ccccc1` [diphenhydramine hydrochloride], -0.041; that for `CC(=O)[C@H]1CC[C@H]2[C@@H]3CCC4=CC(=O)CC[C@]4(C)[C@H]3CC[C@]12C` [progesterone], 0.0103.
For the molecule `CN(C)CC/C=C1/c2ccccc2Sc2ccc(Cl)cc21` [chlorprothixene hydrochloride], the log was -0.118.
The result for `CC(=O)O[C@H]1C[C@@H](OC(C)=O)C(C)(C)[C@@H]2C[C@@H](OC(C)=O)[C@]3(C)[C@H](CC[C@@]4(C)[C@H](c5ccoc5)OC(=O)[C@H]5O[C@@]534)[C@@]12C` [khivorin] reads 0.187; that for `N[C@@H](Cc1cc(I)c(Oc2cc(I)c(O)c(I)c2)c(I)c1)C(=O)O` [levothyroxine], -0.0702; that for `Cc1cc(=O)oc2cc(O)c(O)cc12` [4-methylesculetin], 0.0324.
On to `COc1cc(O)c(C(C)=O)c(O)c1` [4-o-methylphloracetophenone], for which the log was found to be 0.143.
The result for `N=C(N)NC(=O)Cc1c(Cl)cccc1Cl` [guanfacine hydrochloride] reads 0.187.
Consider `CCCCCCCCCC(=O)N[C@@H](Cc1c[nH]c2ccccc12)C(=O)N[C@@H](CC(N)=O)C(=O)N[C@@H](CC(=O)O)C(=O)N[C@@H]1C(=O)NCC(=O)N[C@@H](CCCN)C(=O)N[C@@H](CC(=O)O)C(=O)N[C@H](C)C(=O)N[C@@H](CC(=O)O)C(=O)NCC(=O)N[C@H](CO)C(=O)N[C@@H]([C@H](C)CC(=O)O)C(=O)N[C@@H](CC(=O)c2ccccc2N)C(=O)O[C@@H]1C` [daptomycin (5 millimolar/dmso)], for which the log was determined as 0.0843.
The result for `COc1cc(O)c(C(=O)c2ccccc2)cc1S(=O)(=O)O` [sulisobenzone] reads -0.0557.
With `O=C(O)CCCCCCCCCCCC[C@@H]1C=CCC1` [chaulmoogric acid], the log stood at 0.134.
For `COc1cc(OC)c2c(=O)c(O)c(-c3ccc(OC)c(OC)c3)oc2c1` [quercetin 5,7,3',4'-tetramethyl ether] the value was -0.0745; for `CNCc1ccccc1` [n-methylbenzylamine hydrochloride], -0.167.
Take `CN1C(=O)CC(c2ccccc2)C1=O` (stereo unspecified) [phensuccimide]: the log is -0.0467.
